Test results: the supplement of paper PMC12823440, “Inhibitors supercharge kinase turnover through native proteolytic circuits” (Nature, 2025)
This is one part of the list. Hit calls seldom repeat between salt and free forms of one compound.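 Kinases were expressed as nanoluciferase fusions in K562 cells and luminescence was read every 4 h between 2 and 18 h as percent of control, DMSO set to 100% and a positive control to 0%. A time point counts as decreased when the signal drops significantly (2 sigma). The hit call is the authors' own, does not follow from the count of time points alone, and its rule is not shown.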

By UniProt entry, the sequences of proteins in these tests, tags left out. Where a name states a change or a piece, a line headed by the entry shows the natural chain unless it says otherwise.
UniProt Q13546: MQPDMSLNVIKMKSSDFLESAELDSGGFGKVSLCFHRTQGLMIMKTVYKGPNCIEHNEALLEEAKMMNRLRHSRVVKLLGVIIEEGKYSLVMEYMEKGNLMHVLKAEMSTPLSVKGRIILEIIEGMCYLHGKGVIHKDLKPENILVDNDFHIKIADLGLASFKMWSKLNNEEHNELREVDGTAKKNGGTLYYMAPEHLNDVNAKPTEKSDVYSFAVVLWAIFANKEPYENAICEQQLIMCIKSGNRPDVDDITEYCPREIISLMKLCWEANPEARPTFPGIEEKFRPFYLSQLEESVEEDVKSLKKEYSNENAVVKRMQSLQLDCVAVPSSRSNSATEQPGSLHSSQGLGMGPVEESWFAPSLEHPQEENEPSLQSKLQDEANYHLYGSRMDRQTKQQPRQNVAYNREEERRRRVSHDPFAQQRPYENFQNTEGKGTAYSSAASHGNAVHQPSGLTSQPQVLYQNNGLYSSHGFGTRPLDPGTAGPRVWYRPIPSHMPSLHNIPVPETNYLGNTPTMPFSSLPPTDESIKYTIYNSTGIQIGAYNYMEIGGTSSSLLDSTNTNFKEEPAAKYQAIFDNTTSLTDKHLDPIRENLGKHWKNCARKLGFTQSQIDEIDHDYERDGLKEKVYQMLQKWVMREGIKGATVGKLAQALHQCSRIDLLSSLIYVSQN
UniProt Q01974, whole entry: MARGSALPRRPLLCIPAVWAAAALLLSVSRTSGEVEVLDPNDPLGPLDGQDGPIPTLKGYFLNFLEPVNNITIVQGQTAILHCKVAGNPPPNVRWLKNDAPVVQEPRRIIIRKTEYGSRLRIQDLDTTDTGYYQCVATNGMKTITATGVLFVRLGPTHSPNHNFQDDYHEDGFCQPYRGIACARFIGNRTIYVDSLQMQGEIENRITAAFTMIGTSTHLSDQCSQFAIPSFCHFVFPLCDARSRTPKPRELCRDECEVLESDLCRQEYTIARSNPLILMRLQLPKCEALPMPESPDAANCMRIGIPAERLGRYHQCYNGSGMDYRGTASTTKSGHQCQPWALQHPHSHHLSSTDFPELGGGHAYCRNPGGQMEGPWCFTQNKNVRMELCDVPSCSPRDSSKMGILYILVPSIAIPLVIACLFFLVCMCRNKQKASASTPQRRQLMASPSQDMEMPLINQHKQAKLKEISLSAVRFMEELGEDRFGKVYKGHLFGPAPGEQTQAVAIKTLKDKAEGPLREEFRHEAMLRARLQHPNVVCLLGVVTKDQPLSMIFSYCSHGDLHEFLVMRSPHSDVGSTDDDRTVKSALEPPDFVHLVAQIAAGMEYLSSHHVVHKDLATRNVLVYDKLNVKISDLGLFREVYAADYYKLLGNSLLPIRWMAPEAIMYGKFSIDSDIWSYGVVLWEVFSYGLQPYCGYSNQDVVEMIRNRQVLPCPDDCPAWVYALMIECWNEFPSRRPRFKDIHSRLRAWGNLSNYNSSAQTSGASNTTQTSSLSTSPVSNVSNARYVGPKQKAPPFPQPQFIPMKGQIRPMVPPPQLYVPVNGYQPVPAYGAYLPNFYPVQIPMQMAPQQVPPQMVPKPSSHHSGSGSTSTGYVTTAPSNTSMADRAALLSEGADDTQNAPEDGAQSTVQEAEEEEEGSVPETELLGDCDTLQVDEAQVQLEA
UniProt Q15418, whole entry: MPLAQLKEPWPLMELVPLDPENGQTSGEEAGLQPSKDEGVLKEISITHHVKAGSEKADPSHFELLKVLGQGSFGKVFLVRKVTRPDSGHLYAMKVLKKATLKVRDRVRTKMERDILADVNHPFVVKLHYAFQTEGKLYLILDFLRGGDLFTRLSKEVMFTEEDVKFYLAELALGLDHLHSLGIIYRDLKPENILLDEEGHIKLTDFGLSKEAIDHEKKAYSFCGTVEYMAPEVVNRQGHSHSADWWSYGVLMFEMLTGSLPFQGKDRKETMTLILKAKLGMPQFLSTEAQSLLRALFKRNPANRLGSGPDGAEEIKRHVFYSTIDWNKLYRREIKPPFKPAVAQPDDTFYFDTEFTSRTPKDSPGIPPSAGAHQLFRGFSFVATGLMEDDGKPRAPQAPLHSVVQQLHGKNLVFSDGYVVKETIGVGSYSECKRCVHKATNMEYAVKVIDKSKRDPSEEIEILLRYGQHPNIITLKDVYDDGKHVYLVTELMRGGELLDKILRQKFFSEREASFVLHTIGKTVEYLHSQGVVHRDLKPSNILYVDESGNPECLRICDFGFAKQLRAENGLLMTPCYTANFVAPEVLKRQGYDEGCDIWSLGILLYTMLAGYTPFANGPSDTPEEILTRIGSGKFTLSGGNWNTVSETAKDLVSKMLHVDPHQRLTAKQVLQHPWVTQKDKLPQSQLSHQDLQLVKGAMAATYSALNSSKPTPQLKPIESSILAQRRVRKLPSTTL
UniProt Q9NYA1, whole entry: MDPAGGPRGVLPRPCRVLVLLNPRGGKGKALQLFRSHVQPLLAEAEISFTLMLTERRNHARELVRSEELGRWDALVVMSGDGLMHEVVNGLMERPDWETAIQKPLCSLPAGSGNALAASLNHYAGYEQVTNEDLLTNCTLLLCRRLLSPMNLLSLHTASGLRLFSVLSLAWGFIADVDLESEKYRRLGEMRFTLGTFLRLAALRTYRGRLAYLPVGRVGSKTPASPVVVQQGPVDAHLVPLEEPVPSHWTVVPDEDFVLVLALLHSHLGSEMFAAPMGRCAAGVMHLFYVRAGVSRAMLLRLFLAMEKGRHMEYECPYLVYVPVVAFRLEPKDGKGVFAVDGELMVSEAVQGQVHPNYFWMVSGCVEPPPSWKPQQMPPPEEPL
UniProt Q9Y6E0: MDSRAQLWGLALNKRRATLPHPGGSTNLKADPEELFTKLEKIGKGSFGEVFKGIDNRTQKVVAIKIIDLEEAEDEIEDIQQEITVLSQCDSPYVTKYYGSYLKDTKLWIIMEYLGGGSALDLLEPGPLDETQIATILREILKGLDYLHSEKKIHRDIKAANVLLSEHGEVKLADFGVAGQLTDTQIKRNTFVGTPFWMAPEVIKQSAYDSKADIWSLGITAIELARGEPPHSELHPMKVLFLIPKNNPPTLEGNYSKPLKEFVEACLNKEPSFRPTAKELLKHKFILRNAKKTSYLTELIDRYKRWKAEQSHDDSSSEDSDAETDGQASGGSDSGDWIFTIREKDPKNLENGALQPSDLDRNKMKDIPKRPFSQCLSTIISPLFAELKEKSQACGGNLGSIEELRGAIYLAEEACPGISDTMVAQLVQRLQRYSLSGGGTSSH
UniProt Q6PHR2: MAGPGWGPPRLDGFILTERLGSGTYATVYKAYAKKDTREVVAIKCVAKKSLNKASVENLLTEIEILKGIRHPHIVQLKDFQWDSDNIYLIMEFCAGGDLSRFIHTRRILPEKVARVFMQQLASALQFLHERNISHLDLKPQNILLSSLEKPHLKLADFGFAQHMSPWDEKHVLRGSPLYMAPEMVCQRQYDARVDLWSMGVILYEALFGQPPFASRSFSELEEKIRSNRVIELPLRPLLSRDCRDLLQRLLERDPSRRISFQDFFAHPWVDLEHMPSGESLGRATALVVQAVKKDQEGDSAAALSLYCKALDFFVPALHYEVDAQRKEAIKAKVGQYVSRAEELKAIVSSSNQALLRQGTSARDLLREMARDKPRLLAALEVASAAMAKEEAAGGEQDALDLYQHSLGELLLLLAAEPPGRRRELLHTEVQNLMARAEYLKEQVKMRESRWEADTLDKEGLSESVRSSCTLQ
UniProt P07947, whole entry, looked up: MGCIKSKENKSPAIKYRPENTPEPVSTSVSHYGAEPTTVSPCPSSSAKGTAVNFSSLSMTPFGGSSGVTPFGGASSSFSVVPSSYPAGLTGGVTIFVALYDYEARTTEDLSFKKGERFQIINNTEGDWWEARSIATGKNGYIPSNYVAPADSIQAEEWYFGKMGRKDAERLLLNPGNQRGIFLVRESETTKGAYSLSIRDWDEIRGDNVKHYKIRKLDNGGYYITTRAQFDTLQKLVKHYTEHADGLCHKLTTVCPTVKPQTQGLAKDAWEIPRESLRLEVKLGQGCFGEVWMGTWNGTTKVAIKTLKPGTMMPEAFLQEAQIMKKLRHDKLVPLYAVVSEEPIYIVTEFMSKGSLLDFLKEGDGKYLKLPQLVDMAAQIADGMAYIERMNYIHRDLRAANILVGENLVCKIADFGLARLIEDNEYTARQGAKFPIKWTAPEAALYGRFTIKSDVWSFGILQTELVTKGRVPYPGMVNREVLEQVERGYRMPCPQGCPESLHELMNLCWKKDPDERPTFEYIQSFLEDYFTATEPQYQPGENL
UniProt P43403: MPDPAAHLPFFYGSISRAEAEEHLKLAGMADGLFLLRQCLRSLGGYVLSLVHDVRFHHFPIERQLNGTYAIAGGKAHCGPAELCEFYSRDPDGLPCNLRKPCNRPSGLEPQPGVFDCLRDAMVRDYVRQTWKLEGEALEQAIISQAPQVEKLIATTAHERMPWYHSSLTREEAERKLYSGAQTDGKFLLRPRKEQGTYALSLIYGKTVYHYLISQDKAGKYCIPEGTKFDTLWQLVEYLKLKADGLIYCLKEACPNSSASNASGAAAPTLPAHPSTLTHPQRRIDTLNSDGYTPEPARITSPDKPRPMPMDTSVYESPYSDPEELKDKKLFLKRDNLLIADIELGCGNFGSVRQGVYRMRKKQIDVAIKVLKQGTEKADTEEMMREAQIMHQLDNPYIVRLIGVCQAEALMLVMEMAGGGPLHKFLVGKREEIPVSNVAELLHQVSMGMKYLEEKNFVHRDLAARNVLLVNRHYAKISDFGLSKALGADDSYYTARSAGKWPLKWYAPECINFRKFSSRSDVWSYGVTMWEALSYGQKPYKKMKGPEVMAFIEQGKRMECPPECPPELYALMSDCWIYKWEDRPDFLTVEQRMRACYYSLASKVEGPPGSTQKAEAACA
UniProt P00519, whole entry: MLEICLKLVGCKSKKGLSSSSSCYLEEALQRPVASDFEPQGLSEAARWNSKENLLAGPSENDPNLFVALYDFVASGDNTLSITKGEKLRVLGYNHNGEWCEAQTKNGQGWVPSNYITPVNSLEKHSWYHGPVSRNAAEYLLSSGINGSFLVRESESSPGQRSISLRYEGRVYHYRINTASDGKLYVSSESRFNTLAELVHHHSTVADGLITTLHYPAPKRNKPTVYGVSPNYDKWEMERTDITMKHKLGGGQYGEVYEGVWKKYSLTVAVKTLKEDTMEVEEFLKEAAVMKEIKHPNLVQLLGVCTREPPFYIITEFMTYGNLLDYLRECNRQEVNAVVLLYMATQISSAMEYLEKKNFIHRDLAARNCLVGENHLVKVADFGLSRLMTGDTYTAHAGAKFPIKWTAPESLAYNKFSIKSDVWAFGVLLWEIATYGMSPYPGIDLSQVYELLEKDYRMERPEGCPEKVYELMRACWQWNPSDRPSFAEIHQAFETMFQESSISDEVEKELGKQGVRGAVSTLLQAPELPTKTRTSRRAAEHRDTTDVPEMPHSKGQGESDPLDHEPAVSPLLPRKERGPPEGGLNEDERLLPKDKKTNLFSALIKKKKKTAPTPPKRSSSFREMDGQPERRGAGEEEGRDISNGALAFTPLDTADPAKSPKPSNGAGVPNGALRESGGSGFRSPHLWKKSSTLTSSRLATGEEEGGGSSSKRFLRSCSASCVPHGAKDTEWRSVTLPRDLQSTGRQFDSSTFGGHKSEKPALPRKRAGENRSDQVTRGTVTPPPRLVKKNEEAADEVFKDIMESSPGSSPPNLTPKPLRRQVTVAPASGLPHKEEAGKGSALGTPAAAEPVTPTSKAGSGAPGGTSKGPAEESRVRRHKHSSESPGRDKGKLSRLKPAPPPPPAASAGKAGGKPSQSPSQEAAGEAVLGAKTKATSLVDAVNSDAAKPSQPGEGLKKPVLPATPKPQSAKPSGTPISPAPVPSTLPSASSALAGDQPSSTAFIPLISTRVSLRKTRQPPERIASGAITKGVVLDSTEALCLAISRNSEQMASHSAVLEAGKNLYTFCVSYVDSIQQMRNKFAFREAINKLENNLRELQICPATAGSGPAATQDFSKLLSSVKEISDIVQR
UniProt P31749: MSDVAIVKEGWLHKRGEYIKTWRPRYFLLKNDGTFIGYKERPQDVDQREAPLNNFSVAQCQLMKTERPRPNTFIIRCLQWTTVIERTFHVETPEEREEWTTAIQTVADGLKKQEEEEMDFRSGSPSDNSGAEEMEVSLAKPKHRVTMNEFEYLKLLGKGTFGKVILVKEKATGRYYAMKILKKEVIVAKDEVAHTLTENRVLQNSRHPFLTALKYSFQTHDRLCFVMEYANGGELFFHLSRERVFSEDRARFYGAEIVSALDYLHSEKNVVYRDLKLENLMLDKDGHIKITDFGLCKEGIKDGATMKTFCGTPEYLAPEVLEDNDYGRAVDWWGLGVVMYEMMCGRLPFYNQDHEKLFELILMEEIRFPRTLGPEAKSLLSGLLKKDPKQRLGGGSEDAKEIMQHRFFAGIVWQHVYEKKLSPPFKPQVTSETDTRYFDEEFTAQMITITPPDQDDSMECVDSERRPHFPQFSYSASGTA

What was measured:
Conditions in all cases: K562; 2-18 h
RET = RET (UniProt P07949); assay: kinase-Nluc reporter destabilization hit call (1 = scored as downregulated) (binary); higher = compound decreases kinase abundance
[1] = molecular target: RET_M918T (clone: RET_mut) (UniProt P07949); assay: as above
RIOK1 = RIOK1 (UniProt Q9BRS2); assay: as above
RIPK1 = RIPK1 (UniProt Q13546); assay: as above
RIPK2 = RIPK2 (UniProt O43353); assay: as above
ROR2 = ROR2 (UniProt Q01974); assay: as above
RPS6KA1 = RPS6KA1 (UniProt Q15418); assay: as above
SPHK1 = SPHK1 (UniProt Q9NYA1); assay: as above
SRC = SRC (UniProt P12931); assay: as above
STK24 = STK24 (UniProt Q9Y6E0); assay: as above
STK38 = STK38 (UniProt Q15208); assay: as above
SYK = SYK (UniProt P43405); assay: as above
TEC = TEC (UniProt P42680); assay: as above
TYK2 = TYK2 (UniProt P29597); assay: as above
ULK3 = ULK3 (UniProt Q6PHR2); assay: as above
YES1 = YES1 (UniProt P07947); assay: as above
ZAK = ZAK (UniProt Q9NYL2); assay: as above
ZAP70 = ZAP70 (UniProt P43403); assay: as above
ABL1 = ABL1 (UniProt P00519); assay: number of time points (of 5) at which kinase-Nluc abundance scored as decreased, DMSO-normalised (count); higher = more persistent destabilization
AKT1 = AKT1 (UniProt P31749); assay: as above

Row | SMILES | kinase-Nluc reporter destabilization hit call (RET) | kinase-Nluc reporter destabilization hit call [1] | kinase-Nluc reporter destabilization hit call (RIOK1) | kinase-Nluc reporter destabilization hit call (RIPK1) | kinase-Nluc reporter destabilization hit call (RIPK2) | kinase-Nluc reporter destabilization hit call (ROR2) | kinase-Nluc reporter destabilization hit call (RPS6KA1) | kinase-Nluc reporter destabilization hit call (SPHK1) | kinase-Nluc reporter destabilization hit call (SRC) | kinase-Nluc reporter destabilization hit call (STK24) | kinase-Nluc reporter destabilization hit call (STK38) | kinase-Nluc reporter destabilization hit call (SYK) | kinase-Nluc reporter destabilization hit call (TEC) | kinase-Nluc reporter destabilization hit call (TYK2) | kinase-Nluc reporter destabilization hit call (ULK3) | kinase-Nluc reporter destabilization hit call (YES1) | kinase-Nluc reporter destabilization hit call (ZAK) | kinase-Nluc reporter destabilization hit call (ZAP70) | number of time points (ABL1) | number of time points (AKT1)
1 | O=C(Nc1ccc(F)cc1F)C(NC(=S)Nc1cc(C(F)(F)F)cc(C(F)(F)F)c1)c1ccccc1 (racemic) (2.5 µM) | inactive: 0 | inactive: 0 | inactive: 0 | inactive: 0 | inactive: 0 | inactive: 0 | inactive: 0 | inactive: 0 | inactive: 0 | inactive: 0 | inactive: 0 | inactive: 0 | inactive: 0 | inactive: 0 | inactive: 0 | inactive: 0 | inactive: 0 | inactive: 0 | 1 | 0
2 | Cc1cc2c(F)c(Oc3ncnn4cc(OC[C@@H](C)OC(=O)[C@H](C)N)c(C)c34)ccc2[nH]1 [Brivanib (alaninate)] (10 µM) | inactive: 0 | inactive: 0 | inactive: 0 | inactive: 0 | inactive: 0 | inactive: 0 | inactive: 0 | inactive: 0 | inactive: 0 | inactive: 0 | inactive: 0 | inactive: 0 | inactive: 0 | inactive: 0 | inactive: 0 | inactive: 0 | inactive: 0 | inactive: 0 | 0 | 0
3 | CN1CCN(Cc2ccc(-c3cn(C4CCC(O)CC4)c4nc(NCCC5CC5)ncc34)cc2)CC1 (stereo not drawn) (2.5 µM) | inactive: 0 | inactive: 0 | inactive: 0 | inactive: 0 | inactive: 0 | inactive: 0 | inactive: 0 | inactive: 0 | inactive: 0 | inactive: 0 | inactive: 0 | inactive: 0 | inactive: 0 | inactive: 0 | inactive: 0 | inactive: 0 | inactive: 0 | inactive: 0 | 0 | 0
4 | CC1=C(C#N)C(c2ccc3[nH]nc(C)c3c2)C(C#N)=C(C)N1 (10 µM) | inactive: 0 | inactive: 0 | inactive: 0 | inactive: 0 | inactive: 0 | inactive: 0 | inactive: 0 | inactive: 0 | inactive: 0 | inactive: 0 | inactive: 0 | inactive: 0 | inactive: 0 | inactive: 0 | inactive: 0 | inactive: 0 | inactive: 0 | inactive: 0 | 0 | 0
5 | CN1C(=O)N[C@@H](Cc2c[nH]c3c(Cl)cccc23)C1=O [Necrostatin 2 (S enantiomer)] (10 µM) | inactive: 0 | inactive: 0 | inactive: 0 | inactive: 0 | inactive: 0 | inactive: 0 | inactive: 0 | inactive: 0 | inactive: 0 | inactive: 0 | inactive: 0 | inactive: 0 | inactive: 0 | inactive: 0 | inactive: 0 | inactive: 0 | inactive: 0 | inactive: 0 | 0 | 0
6 | COCCOc1cnc2ccn([C@H](C)c3nnc4c(F)cc(-c5cnn(C)c5)cn34)c(=O)c2c1 (10 µM) | inactive: 0 | inactive: 0 | inactive: 0 | inactive: 0 | inactive: 0 | inactive: 0 | inactive: 0 | inactive: 0 | inactive: 0 | inactive: 0 | inactive: 0 | inactive: 0 | inactive: 0 | inactive: 0 | inactive: 0 | inactive: 0 | inactive: 0 | inactive: 0 | 0 | 0
7 | COc1cc2nccc(Nc3cccc(Oc4ccccc4)c3)c2cc1OC (2.5 µM) | inactive: 0 | inactive: 0 | inactive: 0 | inactive: 0 | inactive: 0 | inactive: 0 | inactive: 0 | inactive: 0 | inactive: 0 | inactive: 0 |  | inactive: 0 | inactive: 0 | inactive: 0 | inactive: 0 | inactive: 0 | inactive: 0 | inactive: 0 | 0 | 0
8 | O=[N+]([O-])c1ccc(-c2nc(-c3ccc(F)cc3)c(-c3ccncc3)[nH]2)cc1 (10 µM) | inactive: 0 | inactive: 0 | inactive: 0 | inactive: 0 | inactive: 0 | inactive: 0 | inactive: 0 | active: 1 | inactive: 0 | inactive: 0 | inactive: 0 | inactive: 0 | inactive: 0 | active: 1 | inactive: 0 | inactive: 0 | inactive: 0 | inactive: 0 | 0 | 0
9 | CCn1c(N)c(C(=O)NC)c(=O)c2ccc(C#CC(C)(O)COC)nc21 (stereo not drawn) (10 µM) | inactive: 0 | inactive: 0 | inactive: 0 | inactive: 0 | inactive: 0 | inactive: 0 | inactive: 0 | inactive: 0 | inactive: 0 | inactive: 0 | inactive: 0 | inactive: 0 | inactive: 0 | inactive: 0 | inactive: 0 | inactive: 0 | inactive: 0 | inactive: 0 | 0 | 0
10 | COc1cc2ncnc(Nc3cc(Br)c(O)c(Br)c3)c2cc1OC (2.5 µM) | inactive: 0 | inactive: 0 | inactive: 0 |  | inactive: 0 | inactive: 0 | inactive: 0 | inactive: 0 | inactive: 0 | inactive: 0 | inactive: 0 | inactive: 0 | inactive: 0 | inactive: 0 | inactive: 0 | inactive: 0 | inactive: 0 | inactive: 0 | 0 | 0

Only kinase-Nluc reporter destabilization hit call (STK38) and kinase-Nluc reporter destabilization hit call (YES1) (two entries from above):
Row | SMILES | kinase-Nluc reporter destabilization hit call (STK38) | kinase-Nluc reporter destabilization hit call (YES1)
4 | CC1=C(C#N)C(c2ccc3[nH]nc(C)c3c2)C(C#N)=C(C)N1 (10 µM) | inactive: 0 | inactive: 0
5 | CN1C(=O)N[C@@H](Cc2c[nH]c3c(Cl)cccc23)C1=O [Necrostatin 2 (S enantiomer)] (10 µM) | inactive: 0 | inactive: 0
